Data reported in patent US8470738B2, “Pyridazinone compound and herbicide containing the same” (Sumitomo Chemical Company, Limited, priority 2007, dated 2013).
Some entries share one result that the patent states for a list of compounds.

Legend:
[1] = test system: Lolium multiflorum; assay: Post-emergence treatment test in dry field; type: in vivo; settings: treatment amount 250 g/ha; foliar spray at first to second leaf stage; twenty days after treatment; 0 = no effect, 10 = complete death
Description: A plastic cup with a diameter of 8 cm and a depth of 6.5 cm was filled with commercially available soil. Seeds of Lolium multiflorum were sowed in the cup, covered with soil about 0.5 cm thick and then grown in a greenhouse. When the plants were grown in the first to second leaf stage, a diluted liquid formulation containing a prescribed amount of the compound I-a-2 was sprayed onto the whole plants uniformly. The diluted liquid formulation was prepared by dissolving a prescribed amount of the compound I-a-2 in a 2% solution of Tween 20 (polyoxyethylene sorbitan fatty acid ester, MP Biomedicals, Inc.) in dimethylformamide and then diluting the solution with deionized water. After the treatment, the plants were grown in a greenhouse. Twenty days after treatment, the controlling effect of the compound on Lolium multiflorum was visually evaluated. The effect was rated in 11 levels, from 0 to 10 (0 represents “no effect”; 10 represents “complete death”; and a state of the plant therebetween is rated in levels of 1 to 9).
The other compounds of the present invention, and Compound A described in J. Heterocycl. Chem., vol. 42, pp. 427-435 (2005) as a comparative example were similarly tested.

[2] = test system: Apera spica-venti; assay: Pre-emergence treatment test in dry field; type: in vivo; settings: sprayed onto soil surface after sowing, three weeks after treatment, 0 = no effect, 10 = complete death
Description: A plastic container (32 cm×22 cm×8 cm in height) was filled with soil sterilized by steam. Seeds of Apera spica-venti were sowed in the container and covered with soil about 0.5 cm thick. Then, a diluted liquid formulation containing a prescribed amount of the compound I-a-1 was sprayed onto the soil surface uniformly. The diluted liquid formulation was prepared by the method similar to that in Test example 1. After the treatment, the plants were grown in a greenhouse. Three weeks after treatment, the controlling effect of the compound on Apera spica-venti was visually evaluated. The effect was rated in 11 levels, from 0 to 10 similarly to Test example 1.
The other compounds of the present invention and Compound A as a comparative example were similarly tested.

Row | Structure (SMILES) | controlling effect on Lolium multiflorum (visually evaluated, rated 0 to 10) [1] | controlling effect on Apera spica-venti (visually evaluated, rated 0 to 10) ([2]; treatment amount 250 g/ha) | controlling effect on Apera spica-venti (visually evaluated, rated 0 to 10) ([2]; treatment amount 125 g/ha)
1 | CCc1cc(Cl)cc(CC)c1-c1c(O)c(C)nn(C)c1=O [I-a-2, 4-(4-Chloro-2,6-diethylphenyl)-5-hydroxy-2,6-dimethyl-3(2H)-pyridazinone] | ≥ 7 | – | –
2 | C#Cc1cc(CC)c(-c2c(O)c(C)nn(C)c2=O)c(CC)c1 [I-a-20, 4-(2,6-Diethyl-4-ethynylphenyl)-5-hydroxy-2,6-dimethyl-3(2H)-pyridazinone] | ≥ 7 | ≥ 8 | –
3 | CCc1cc(-c2ccccc2)cc(CC)c1-c1c(OC(C)=O)c(C)nn(C)c1=O [I-b-1, 5-Acetoxy-4-(2,6-diethyl-4-phenylphenyl)-2,6-dimethyl-3(2H)-pyridazinone] | ≥ 7 | – | ≥ 8
